No constants are given. Whether binding was seen depends on the method and setting. Binding seen in cells or lysates may run through a third protein. Some binding calls cover weakened binding; strength is not graded here. Sequences can lack the tags named with a protein.
Experiments:
HsSen2 (human) [1] = molecular target: T1, HsSen2 (human) (UniProt Q8NCE0); assay: co-purification (anti-Flag then Ni beads), SDS-PAGE, silver staining
T1 sequence (looked up): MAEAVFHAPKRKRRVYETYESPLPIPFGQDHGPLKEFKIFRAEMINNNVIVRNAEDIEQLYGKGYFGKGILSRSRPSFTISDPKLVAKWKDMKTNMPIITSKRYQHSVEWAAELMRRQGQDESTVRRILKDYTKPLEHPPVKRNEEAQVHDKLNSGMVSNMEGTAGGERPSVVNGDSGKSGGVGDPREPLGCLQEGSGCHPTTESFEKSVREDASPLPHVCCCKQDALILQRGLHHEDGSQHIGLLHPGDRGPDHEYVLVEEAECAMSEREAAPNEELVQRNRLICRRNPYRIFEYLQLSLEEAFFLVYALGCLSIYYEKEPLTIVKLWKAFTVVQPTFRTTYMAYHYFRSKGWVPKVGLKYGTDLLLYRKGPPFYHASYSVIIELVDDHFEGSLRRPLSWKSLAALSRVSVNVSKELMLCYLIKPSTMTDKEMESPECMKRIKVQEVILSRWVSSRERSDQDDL

HsSen34 (human) [2] = molecular target: T2, HsSen34 (human) (UniProt Q9BSV6); assay: as above
T2 sequence (looked up): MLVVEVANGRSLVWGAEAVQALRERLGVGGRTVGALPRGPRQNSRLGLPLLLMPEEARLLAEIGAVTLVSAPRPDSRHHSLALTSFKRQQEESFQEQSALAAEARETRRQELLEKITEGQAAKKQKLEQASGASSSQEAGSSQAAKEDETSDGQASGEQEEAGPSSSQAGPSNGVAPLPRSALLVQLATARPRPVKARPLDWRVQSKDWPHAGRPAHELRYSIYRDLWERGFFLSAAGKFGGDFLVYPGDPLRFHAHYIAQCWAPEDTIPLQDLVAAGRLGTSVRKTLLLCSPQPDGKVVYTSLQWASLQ

HsClp1 (human) = molecular target: T3, HsClp1 (human) (UniProt Q92989); assay: co-purification with the His-Flag-tagged bait from stable 293 cells (anti-Flag beads, then Ni beads); SDS-PAGE, silver staining
T3 sequence (looked up): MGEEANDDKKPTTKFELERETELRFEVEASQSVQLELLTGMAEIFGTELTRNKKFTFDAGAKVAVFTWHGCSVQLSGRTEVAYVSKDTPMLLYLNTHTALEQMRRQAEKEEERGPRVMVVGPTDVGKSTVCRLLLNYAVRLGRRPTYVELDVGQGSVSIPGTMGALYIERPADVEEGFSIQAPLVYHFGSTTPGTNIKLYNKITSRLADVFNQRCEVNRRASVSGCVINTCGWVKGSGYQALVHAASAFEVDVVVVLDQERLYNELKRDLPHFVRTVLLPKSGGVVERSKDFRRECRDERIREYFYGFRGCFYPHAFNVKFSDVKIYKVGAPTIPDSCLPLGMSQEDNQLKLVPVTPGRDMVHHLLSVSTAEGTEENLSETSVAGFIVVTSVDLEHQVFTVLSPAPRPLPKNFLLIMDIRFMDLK

HsSen2 (human) [3] = molecular target: T1, HsSen2 (human); assay: as above
HsSen34 (human) [4] = molecular target: T2, HsSen34 (human); assay: as above
HsSen15 (human), Q8WW01 [5] = molecular target: T4, HsSen15 (human), Q8WW01; assay: co-purification (anti-Flag then Ni beads), SDS-PAGE, silver staining; conditions: remark: other sources report otherwise
T4 chain: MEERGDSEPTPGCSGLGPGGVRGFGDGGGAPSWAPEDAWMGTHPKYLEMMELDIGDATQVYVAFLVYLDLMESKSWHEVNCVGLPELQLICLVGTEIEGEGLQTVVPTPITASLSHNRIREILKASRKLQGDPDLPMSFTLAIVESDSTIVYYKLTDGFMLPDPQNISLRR

HsSen15 (human), Q8WW01 [6] = molecular target: T4, HsSen15 (human), Q8WW01; assay: co-purification with the His-Flag-tagged bait from stable 293 cells (anti-Flag beads, then Ni beads); SDS-PAGE, silver staining; conditions: remark: other sources report otherwise
HsSen54 (human), Q7Z6J9 [7] = molecular target: T5, HsSen54 (human), Q7Z6J9; assay: co-purification (anti-Flag then Ni beads), SDS-PAGE, silver staining; conditions: remark: other sources report otherwise
T5 chain: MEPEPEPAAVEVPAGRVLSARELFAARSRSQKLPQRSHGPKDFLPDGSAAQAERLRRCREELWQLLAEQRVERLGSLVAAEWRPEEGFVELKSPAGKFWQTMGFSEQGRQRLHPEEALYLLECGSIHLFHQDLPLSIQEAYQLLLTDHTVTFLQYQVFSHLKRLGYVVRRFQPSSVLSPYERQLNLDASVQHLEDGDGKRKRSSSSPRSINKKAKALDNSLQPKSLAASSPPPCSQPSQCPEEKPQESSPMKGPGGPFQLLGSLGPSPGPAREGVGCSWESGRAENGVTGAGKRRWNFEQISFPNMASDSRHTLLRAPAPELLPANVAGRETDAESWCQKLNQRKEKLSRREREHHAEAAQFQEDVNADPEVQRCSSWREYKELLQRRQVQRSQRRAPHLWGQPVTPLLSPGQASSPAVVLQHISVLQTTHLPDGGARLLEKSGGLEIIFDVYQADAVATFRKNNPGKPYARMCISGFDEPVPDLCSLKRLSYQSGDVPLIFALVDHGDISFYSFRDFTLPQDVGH

HsSen54 (human), Q7Z6J9 [8] = molecular target: T5, HsSen54 (human), Q7Z6J9; assay: co-purification with the His-Flag-tagged bait from stable 293 cells (anti-Flag beads, then Ni beads); SDS-PAGE, silver staining; conditions: remark: other sources report otherwise

Measured: binding

B1: His-Flag-HsSen54 (protein, human, UniProt Q7Z6J9 1-526, looked up, not shown: small tags and cut ends)
chain: MEPEPEPAAVEVPAGRVLSARELFAARSRSQKLPQRSHGPKDFLPDGSAAQAERLRRCREELWQLLAEQRVERLGSLVAAEWRPEEGFVELKSPAGKFWQTMGFSEQGRQRLHPEEALYLLECGSIHLFHQDLPLSIQEAYQLLLTDHTVTFLQYQVFSHLKRLGYVVRRFQPSSVLSPYERQLNLDASVQHLEDGDGKRKRSSSSPRSINKKAKALDNSLQPKSLAASSPPPCSQPSQCPEEKPQESSPMKGPGGPFQLLGSLGPSPGPAREGVGCSWESGRAENGVTGAGKRRWNFEQISFPNMASDSRHTLLRAPAPELLPANVAGRETDAESWCQKLNQRKEKLSRREREHHAEAAQFQEDVNADPEVQRCSSWREYKELLQRRQVQRSQRRAPHLWGQPVTPLLSPGQASSPAVVLQHISVLQTTHLPDGGARLLEKSGGLEIIFDVYQADAVATFRKNNPGKPYARMCISGFDEPVPDLCSLKRLSYQSGDVPLIFALVDHGDISFYSFRDFTLPQDVGH
binds: HsSen2 (human) [1] | HsSen34 (human) [2] | HsClp1 (human) | HsSen2 (human) [3] | HsSen34 (human) [4]

B2: His-Flag-HsSen54, Q7Z6J9 1-526 (protein, human, UniProt Q7Z6J9 1-526, looked up, not shown: small tags and cut ends)
chain: MEPEPEPAAVEVPAGRVLSARELFAARSRSQKLPQRSHGPKDFLPDGSAAQAERLRRCREELWQLLAEQRVERLGSLVAAEWRPEEGFVELKSPAGKFWQTMGFSEQGRQRLHPEEALYLLECGSIHLFHQDLPLSIQEAYQLLLTDHTVTFLQYQVFSHLKRLGYVVRRFQPSSVLSPYERQLNLDASVQHLEDGDGKRKRSSSSPRSINKKAKALDNSLQPKSLAASSPPPCSQPSQCPEEKPQESSPMKGPGGPFQLLGSLGPSPGPAREGVGCSWESGRAENGVTGAGKRRWNFEQISFPNMASDSRHTLLRAPAPELLPANVAGRETDAESWCQKLNQRKEKLSRREREHHAEAAQFQEDVNADPEVQRCSSWREYKELLQRRQVQRSQRRAPHLWGQPVTPLLSPGQASSPAVVLQHISVLQTTHLPDGGARLLEKSGGLEIIFDVYQADAVATFRKNNPGKPYARMCISGFDEPVPDLCSLKRLSYQSGDVPLIFALVDHGDISFYSFRDFTLPQDVGH
binds: HsSen15 (human), Q8WW01 [5] | HsSen15 (human), Q8WW01 [6]

B3: His-Flag-HsSen15, Q8WW01 1-171 (protein, human, UniProt Q8WW01 1-171, looked up, not shown: small tags and cut ends)
chain: MEERGDSEPTPGCSGLGPGGVRGFGDGGGAPSWAPEDAWMGTHPKYLEMMELDIGDATQVYVAFLVYLDLMESKSWHEVNCVGLPELQLICLVGTEIEGEGLQTVVPTPITASLSHNRIREILKASRKLQGDPDLPMSFTLAIVESDSTIVYYKLTDGFMLPDPQNISLRR
binds: HsSen54 (human), Q7Z6J9 [7] | HsSen54 (human), Q7Z6J9 [8]

Source: patent US20050053985A1
